From PubChem BioAssay AID493014 (National Center for Advancing Translational Sciences (NCATS), 2011)
Screen size: about 340,000 compounds; about 170 (0.05%) were called active. This list was built around the results that the source calls inconclusive (neither active nor inactive); the mix of calls is not that of the screen. The call rests on the fitted dose curve; in most records, active means well fitted inhibition curve with a large enough effect in the signal ratio, with a control signal flat (not every such curve was filed as active); inconclusive means small, poorly fitted or top-dose-only effect, or effect the other way, or a change in a side signal; inactive means flat fitted curve, though single readings scatter; the % refers to the signal ratio. A potency beside an inconclusive call is a rough fit, not a confirmed value.

assay: qHTS Assay to Find Inhibitors of Chronic Active B-Cell Receptor Signaling; details: ABC-DLBCL IkBa-CBG/CBR reporter, luminescence ratio (green luciferase fused to IkBa over red control in TMD8 lymphoma cells), 4 h; activity change, negative = inhibition: at 46.1 µM (top of the series);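 on activity change, negative = inhibition: plate controls were basal doxycycline-induced cells for no effect and cells given 10 µM MG132 for full effect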
How it was run: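 Cell line TMD8 (human ABC DLBCL), stably expressing tet-inducible CBG68-IkBa fusion and CBR; IMDM/0.5% FBS; cpd up to 46 uM; dox induction, 4 h, 37C/5% CO2; dual luminescence; green/red ratio; MG132 control.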
Potency means the concentration at half of the fitted maximal effect.

Row | SMILES | activity change, negative = inhibition | Potency
1 | CCc1ccc(NC(=O)C(C)OC(=O)c2cccc(S(=O)(=O)N3CCc4ccccc4C3)c2)cc1 (centres undefined) | inconclusive: 12.1% | 
2 | CCC(=O)Nc1ccc(C(=O)Nc2ccc(OC)cc2[N+](=O)[O-])cc1 | inactive | 
3 | CCN1C(=O)/C(=C2/C=Cc3ccccc3N2CC)SC1=S |  | inconclusive: 35.5 µM [rising, single point]
4 | COc1ccc(C(=O)NC(=S)NNC(=O)Cc2cccs2)cc1 | inconclusive: 2.97% | 
5 | CSC1=N/C(=C\c2ccc(C)o2)C(=O)S1 | inconclusive: 3.24% | 
6 | CCSc1nc2ccc(OC)cc2cc1C#N |  | inconclusive: 1.03 µM [rising, full curve, poor fit]
7 | Cc1nc(NCC2CCCO2)c2nnn(Cc3c(F)cccc3Cl)c2n1 (centres undefined) | inconclusive: -10.6% | 
8 | O=C(NCCc1ccccc1)C(=O)c1c[nH]c2ccccc12 |  | inconclusive: 25.1 µM [falling, partial curve]
9 | O=c1[nH]cnc(O)c1N=Nc1ccccc1 | inconclusive: -6.81% | 
10 | O=C1NCCN/C1=C\C(=O)c1ccc(F)cc1 |  | inconclusive: 25.1 µM [falling, partial curve]
11 | Cc1noc(C)c1COc1ccc(CC(=O)NC2CCCCCC2)cc1 | inconclusive: 7.81% | 
12 | COc1ccccc1NC(=O)CSC1=Nc2ccccc2C2=NC(CCC(=O)NCCc3ccccc3)C(=O)N12 (centres undefined) | inconclusive: -38.6% | 
13 | CCN1C(=O)[C@H]2[C@@H](c3ccc(-c4ccc(F)cc4)cc3)N3CCCC[C@@]3(C(=O)OC)[C@H]2C1=O | inconclusive: -19% | 
14 | CCN(CC(=O)Nc1c(C(=O)OC)[nH]c2ccc(C)cc12)c1ccc2c(c1)OCO2 | inconclusive: -11.6% | 
15 | CCOC(=O)c1c(-c2ccc(C)o2)csc1NC(=O)CSc1nncs1 | inconclusive: 6.6% | 
16 | COc1ccc(C2C(C#N)=C(N)N3C(=C2C#N)Sc2ccccc23)cc1 (centres undefined) | inconclusive: 2.33% | 
17 | O=C(Cc1cc(=O)[nH][nH]1)N/N=C/c1ccccc1[N+](=O)[O-] | inconclusive: -1.07% | 
18 | CC(=NNC(=O)c1cc(C)nc2ccccc12)c1ccc(N2CCOCC2)cc1 |  | inconclusive: 18.4 µM [falling, single point]
19 | CC(C)(C)c1ccc(CN(Cc2ccco2)Cc2nnnn2C2CCCC2)cc1 | inconclusive: 24.5% | 
20 | Clc1ccc(OCc2nn3c(C4CCCCC4)nnc3s2)cc1 | inconclusive: -19.7% | 
21 | CC(C)=CCN1CCN(Cc2ccc(Sc3nncn3C)o2)CC1CCO (centres undefined) |  | inconclusive: 14.1 µM [falling, partial curve, poor fit]
22 | COc1ccccc1-n1cnc2sc(-c3ccccc3)cc2c1=O |  | inconclusive: 0.112 µM [falling, full curve, poor fit]
23 | COCc1nnc(NC(=O)CCS(=O)(=O)c2ccccc2)s1 |  | inconclusive: 25.1 µM [falling, single point]
24 | COc1cc2c(-c3ccc4c(c3)OCO4)c(-c3ccsc3)oc(=O)c2cc1OC | inconclusive: -1.78% | 
25 | O=C(/C=C/c1ccccc1Cl)Nc1ccc(Cl)cn1 |  | inconclusive: 1 µM [rising, partial curve, poor fit]
26 | C=CCNC(=O)COC(=O)c1c2c(nc3ccccc13)CCC2 | inconclusive: 9.77% | 
27 | Clc1cccc(-c2nc(NCCN3CCOCC3)c3ccccc3n2)c1 | inconclusive: -2.87% | 

Row | SMILES | activity change, negative = inhibition | Potency
28 | CCOC(=O)N1CCN(C(=O)c2cc(COc3ccc(OC)cc3Cl)on2)CC1 |  | inconclusive: 35.5 µM [falling, partial curve, poor fit]
29 | Cc1ccc(C(=O)N/C(=C\c2cccc([N+](=O)[O-])c2)C(=O)NCc2ccncc2)cc1 | inactive | 
30 | NS(=O)(=O)c1ccc(NC(=O)/C=C/c2cccs2)cc1 | inactive | 
31 | O=C(Nc1ccccc1F)Nc1ccc([N+](=O)[O-])cc1Cl | inconclusive: 7.24% | 
32 | COCc1cc(C)nc2sc(C(=O)Nc3ccccc3OC)c(N)c12 | inactive | 
33 | CCc1nc2sc3c(c2c(=O)n1N)CCC3 | inactive | 
34 | Cc1ccc(-c2cnn(-c3ccccc3)c2N)cc1 |  | inconclusive: 35.5 µM [rising, single point]
35 | COCCNC(=O)c1cccc(OC2CCN(Cc3cccc(C(C)=O)c3)CC2)c1 | inconclusive: -0.966% | 
36 | CCOC(=O)c1csc(NNC=O)n1 | inconclusive: 0.763% | 
37 | CC(C)c1nc2ccccc2n1CC(O)COC1CCCCC1 (centres undefined) |  | inconclusive: 12.6 µM [falling, partial curve, poor fit]
38 | COc1ccc(-c2csc(Nc3ccc(O)cc3)n2)cc1 |  | inconclusive: 8.91 µM [falling, partial curve]
39 | O=C(/C=C/c1cccc(C(F)(F)F)c1)Nc1cccc(C(F)(F)F)c1 | inconclusive: -0.523% | 
40 | COc1ccc(C(=O)COC(=O)C2CC3CCCC(C2)C3=O)cc1Br (centres undefined) | inactive | 
41 | Cn1nnc2cc(C(=O)Nc3ccc(Cl)cc3)ccc21 | inconclusive: 7.85% | 
42 | NC(=O)c1ccccc1NC(=O)Nc1ccc(F)c(Cl)c1 | inconclusive: -2.79% | 
43 | Cc1cc(C)cc(NC(=S)Nc2ccc(Cl)c(Cl)c2)c1 | inactive | 
44 | S=C(NC1CC1)N1CCN(c2ccc(Cl)cc2)CC1 | inactive | 
45 | COc1cc(OC)cc(-c2cc3nc(C)c(CCC(=O)NCc4ccccc4)c(C)n3n2)c1 |  | inconclusive: 22.4 µM [falling, partial curve]
46 | CCC(C)Sc1cccc(-c2nc3cc(C)ccn3c2NC2CCCCC2)c1 (centres undefined) | inactive | 
47 | CC(C)C[C@@H]1NC(=O)[C@H](C(C)C)NC(=O)c2cc([N+](=O)[O-])cc(I)c2OCC[C@@H](C(N)=O)NC1=O | inactive | 
48 | O=C1CS/C(=N\C(=O)N2c3ccccc3Sc3ccccc32)N1 | inconclusive: 12.2% | 
49 | CCCCOP(=O)(c1ccc(N(C)C)cc1)C(O)c1ccc(N(C)C)cc1 (centres undefined) | inconclusive: 4.24% | 
50 | Cc1ccccc1-c1nc(CSc2nc3c(c(=O)[nH]2)CCC3)c(C)o1 | inactive | 
51 | O=C(CNC(=O)c1ccccc1Cl)Nc1ccc(F)cc1 |  | inconclusive: 2.59 µM [falling, partial curve]
52 | Cc1ccccc1Nc1nn2c(=O)c3ccccc3nc2s1 | inconclusive: -4.01% | 
53 | COc1ccccc1Nc1nc2nonc2nc1N1CCCCC1C (centres undefined) | inconclusive: 2.31% | 
54 | COc1ccc(CNS(=O)(=O)c2cc(CN3C(=O)c4cccnc4C3=O)ccc2OC)cc1 | inactive | 

Row | SMILES | activity change, negative = inhibition | Potency
55 | Cc1ccc(-n2c(SCc3ccc(C#N)cc3)nnc2-c2ccccn2)cc1 | inconclusive: 5.87% | 
56 | O=C(NCc1ccc2c(c1)OCO2)c1ccc(NC(=O)C2CCCO2)cc1 (centres undefined) |  | inconclusive: 29.1 µM [falling, partial curve, poor fit]
57 | NC(=O)C1(N2CCCCC2)CCN(CC(=O)Nc2ccccc2-c2ccccc2)CC1 |  | inconclusive: 23.1 µM [falling, single point]
58 | O=C(N/N=C/c1ccccn1)c1c[nH]c2ccccc12 |  | inconclusive: 22.4 µM [falling, single point]
59 | Cc1cc2oc(C(=O)Nc3nonc3C)c(C)c2cc1C | inconclusive: 8.21% | 
60 | Cc1ccc(NC(=O)CC(=O)c2ccc([N+](=O)[O-])cc2)cc1S(=O)(=O)Nc1cccc(Cl)c1 |  | inconclusive: 14.1 µM [falling, partial curve]
61 | O=C1CC(C(=O)Nc2ccc(C(=O)O)cc2)C(c2ccccc2)O1 (centres undefined) |  | inconclusive: 15.8 µM [falling, partial curve]
62 | CC(C)c1ccc(NC(=O)COc2nncc3ccccc23)cc1 | inconclusive: 7.86% | 
63 | CCOc1cc(S(=O)(=O)NCCN2CCOCC2)c(C)cc1C | inconclusive: -4.16% | 
64 | CCOC(=O)c1c(NC(=O)CC2SC(=NC)N(C)C2=O)sc(C)c1C (centres undefined) | inconclusive: 16.4% | 
65 | CC1CN(c2nc3c(c(=O)n(Cc4ccc(Cl)cc4)c(=O)n3C)n2C)CC(C)O1 (centres undefined) | inconclusive: 1.25% | 
66 | CCOc1ccc(S(=O)(=O)Nc2cccc(C(=O)N3CCN(C(C)=O)CC3)c2)cc1 | inactive | 
67 | COc1ccc(NC(=O)CCCN2C(=O)C(c3ccccc3)Oc3cccnc32)c(OC)c1 (centres undefined) | inconclusive: 2.87% | 
68 | O=C(O)CCc1ccc(-c2ccccc2)n1NC(=O)c1sc2ccccc2c1Cl | inconclusive: 7.88% | 
69 | O=C(CCC(=O)OCC(=O)c1ccc(F)cc1)NC1CCCCC1 | inconclusive: 15.8% | 
70 | C[C@H](NC(=O)c1nc[nH]c1C(=O)NCc1ccc(CNC(=O)OC(C)(C)C)cc1)c1ccccc1 | inconclusive: 1.03% | 
71 | COc1ccccc1OCC(=O)Nc1cc2c(cc1C(=O)O)OCCCO2 |  | inconclusive: 28.2 µM [falling, partial curve]
72 | CCCn1nnnc1SCC(=O)Nc1cccc(NC(=O)c2ccco2)c1 |  | inconclusive: 20.6 µM [falling, partial curve]
73 | O=C(CSc1n[nH]c(-c2ccco2)n1)Nc1sc2c(c1C(=O)Nc1ccccc1)CCCC2 | inconclusive: 1.83% | 
74 | CCCc1[nH]nc2c1C(/C(C)=C/c1ccccc1)C(C#N)=C(N)O2 (centres undefined) | inconclusive: -12.3% | 
75 | O=C(NCCN1CCOCC1)c1noc2c1CCc1ccccc1-2 | inactive | 
76 | CC(=O)N1CCc2cc(Br)cc(S(=O)(=O)CCC(=O)N3CCN(c4ccccn4)CC3)c21 |  | inconclusive: 25.1 µM [falling, single point]
77 | O=C(NCCc1ccccc1)c1cnc2n(c1=O)CCS2 | inconclusive: -25.3% | 
78 | O=C(Cc1cccs1)N/N=C/C=C/c1ccccc1[N+](=O)[O-] | inactive | 
79 | O=C(OCc1nnc(-c2ccccc2)o1)c1cc(S(=O)(=O)N2CCOCC2)c(Cl)cc1Cl | inactive | 

A few values from the list.
Potency with Cc1ccc(NC(=O)CC(=O)c2ccc([N+](=O)[O-])cc2)cc1S(=O)(=O)Nc1cccc(Cl)c1 reads inconclusive: 14.1 µM [falling, partial curve]
Potency with O=C(N/N=C/c1ccccn1)c1c[nH]c2ccccc12 reads inconclusive: 22.4 µM [falling, single point]
activity change, negative = inhibition with O=C(O)CCc1ccc(-c2ccccc2)n1NC(=O)c1sc2ccccc2c1Cl reads inconclusive: 7.88%
activity change, negative = inhibition with O=C(NCCc1ccccc1)c1cnc2n(c1=O)CCS2 reads inconclusive: -25.3%
Potency with O=C1CC(C(=O)Nc2ccc(C(=O)O)cc2)C(c2ccccc2)O1 (centres undefined) reads inconclusive: 15.8 µM [falling, partial curve]
